We go through 3 molecules from PMC4299599, “Quantification of cytosolic interactions identifies Ede1 oligomers as key organizers of endocytosis” (Molecular Systems Biology, 2014).

Results are given in words; binding and its absence hold for the method and conditions named.

Conditions in all cases: remark: other sources report otherwise
Experiment [1] addresses T1, Sla1 (S. cerevisiae), P32790.
T1 chain: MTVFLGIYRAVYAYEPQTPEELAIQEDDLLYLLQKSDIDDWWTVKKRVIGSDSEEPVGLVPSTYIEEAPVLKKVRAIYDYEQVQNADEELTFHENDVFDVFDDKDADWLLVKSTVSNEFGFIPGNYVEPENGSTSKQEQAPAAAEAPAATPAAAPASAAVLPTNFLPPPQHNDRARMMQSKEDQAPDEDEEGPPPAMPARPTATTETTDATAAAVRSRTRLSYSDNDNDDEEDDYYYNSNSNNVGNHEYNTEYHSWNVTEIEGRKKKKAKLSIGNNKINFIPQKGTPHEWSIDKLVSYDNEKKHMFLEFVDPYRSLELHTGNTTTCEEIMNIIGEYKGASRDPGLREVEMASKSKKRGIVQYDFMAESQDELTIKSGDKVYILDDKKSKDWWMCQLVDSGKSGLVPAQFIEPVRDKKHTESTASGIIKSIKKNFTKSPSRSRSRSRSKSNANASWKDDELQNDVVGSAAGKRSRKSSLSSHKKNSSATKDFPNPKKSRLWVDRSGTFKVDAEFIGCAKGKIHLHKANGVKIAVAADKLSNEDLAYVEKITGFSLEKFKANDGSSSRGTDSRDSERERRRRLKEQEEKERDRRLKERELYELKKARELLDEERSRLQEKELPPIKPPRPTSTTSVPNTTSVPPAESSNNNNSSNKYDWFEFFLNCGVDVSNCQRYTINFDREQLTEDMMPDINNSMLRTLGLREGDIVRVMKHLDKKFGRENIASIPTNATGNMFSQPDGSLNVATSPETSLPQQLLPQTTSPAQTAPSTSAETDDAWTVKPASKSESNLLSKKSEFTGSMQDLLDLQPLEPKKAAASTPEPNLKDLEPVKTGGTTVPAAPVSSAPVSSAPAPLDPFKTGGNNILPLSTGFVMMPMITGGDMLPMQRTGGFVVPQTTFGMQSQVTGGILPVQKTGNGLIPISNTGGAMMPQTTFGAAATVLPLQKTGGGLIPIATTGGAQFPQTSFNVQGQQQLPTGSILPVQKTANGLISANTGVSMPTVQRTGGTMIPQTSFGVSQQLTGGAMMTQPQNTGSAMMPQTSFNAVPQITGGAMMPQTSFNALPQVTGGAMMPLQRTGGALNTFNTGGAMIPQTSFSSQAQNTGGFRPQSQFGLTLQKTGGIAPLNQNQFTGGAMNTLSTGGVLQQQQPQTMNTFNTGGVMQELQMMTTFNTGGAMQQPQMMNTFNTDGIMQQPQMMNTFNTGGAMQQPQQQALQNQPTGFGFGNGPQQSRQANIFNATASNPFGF
Briefly: condition: 1000 nM (only Kdeff-values < 1000 nM are shown); fluorescence cross-correlation spectroscopy (FCCS); in the cytoplasm of living yeast cells; first-named protein green (3myeGFP or 1myeGFP; eGFP for Don1), second red (3mCherry); self-interaction in diploid strains with one allele of each colour; apparent or effective KD (Kdeff) from single-cell measurements; only Kdeff values < 1000 nM are shown; values for ….

The target is the same in experiment [2]. Briefly: condition: detection range of FCCS: apparent KD up to ~1 μM; fluorescence cross-correlation spectroscopy (FCCS); living yeast cells, observation volume in the cytoplasm; one protein tagged with (3)myeGFP/eGFP and the other with 3mCherry in the same strain; apparent (effective) KD; interactions up to ~1 μM detectable.
Experiment [3] deals with T2, Ent1 (S. cerevisiae), Q12518.
T2 chain: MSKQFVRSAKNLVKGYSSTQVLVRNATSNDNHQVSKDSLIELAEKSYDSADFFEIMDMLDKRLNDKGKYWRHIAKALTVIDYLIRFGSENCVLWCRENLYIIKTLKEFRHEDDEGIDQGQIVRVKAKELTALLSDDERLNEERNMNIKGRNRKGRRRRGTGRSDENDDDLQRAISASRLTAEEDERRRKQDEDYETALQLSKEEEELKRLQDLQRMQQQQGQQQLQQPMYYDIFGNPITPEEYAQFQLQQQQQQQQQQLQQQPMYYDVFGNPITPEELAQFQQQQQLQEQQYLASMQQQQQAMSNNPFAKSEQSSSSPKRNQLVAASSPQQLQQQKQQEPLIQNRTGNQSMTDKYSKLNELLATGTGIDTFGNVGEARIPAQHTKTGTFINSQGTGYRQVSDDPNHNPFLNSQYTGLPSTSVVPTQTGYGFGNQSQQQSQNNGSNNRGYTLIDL
In words: condition: 1000 nM (only Kdeff-values < 1000 nM are shown); fluorescence cross-correlation spectroscopy (FCCS); in the cytoplasm of living yeast cells; first-named protein green (3myeGFP or 1myeGFP; eGFP for Don1), second red (3mCherry); self-interaction in diploid strains with one allele of each colour; apparent or effective KD (Kdeff) from single-cell measurements; only Kdeff values < 1000 nM are shown; values for ….

B1: Pan1, P32521 1-1480 (protein)
chain: MYNPYQQQGMGYQQQQQQQQQQPNGFYPQQQQGQSSNQPQGQPQPQQQMAFNQPQATGIGGMPQSFGNSFSSMPQQPQTGYNNNGNNGSVYGNGNFGQQPQQQQQQAKPQHTGYVPNSSMPMMNTTGTMPPPNPAQQPQLQSIQPQGTGYYQAANTANVHSVQPLQSQGTGYYVSTPNLISSNQTQQPLQAQGTGYYQSQPQQVPPPQQAQSLQPLKPQQTGFYLQPQNQAPLEPLKPTATGFVNSFANNGLNNDIKIPAIRLSFITAQDQAKFETLFRSIVTNGSNTVSGANCRKILMRSGLPPSQLARIWTLCDTSKAGELLFPEFALAMHLINDVLQGDTIPYELDSKTKNEVSSFIDAINLSIANQDSSANDAPKTPFDEFITAGVQNLQPQPTGYMPQTSFGIPLQSQITGGGVASALNPQSTGFMAPTTFNMSMNTGTPGLNPQITGGAPASMQPNITGNALQPQTTGMMPQTTGMMPQTTGMMPQTSFGVNLGPQLTGGALQSQYTGGYGSVMPQQSGPASMPNLSFNQQGLQSQLTGLQPQPTGFLPPSNFSATMPLTAQKTGFGNNEIYTKSNFNNNLIDNSSQDKISTEEKSLFYKIFETFDTQNKGLLDSPTAVEIFRKSGLNRADLEQIWNLCDINNTGQLNKQEFALGMHLVYGKLNGKPIPNVLPSSLIPSSTKLLDNLKNQLKTEPTTTKEKPSFGKIDALSYKNNDDDVLPNYRNRRKVYSAKNEEQSSFSSPSAKSVNHSSSTLQTDDISVDKTVEKKTAKPKYAGFSREINLKNIASLENEIKNISNPENCYDSSIPSDLTSRFDAIIAKLPNLFNEISTIDNEITNAKIQLYRKKNPSSIIGSGPNGEITENDRKKAKSRALLRARMSALTGKSTESEDSLSMEDEQQSAEIKRIQQENGKNQEIIKDIRSSISDISASLKSTMTGSNMISNQEFERWEFGIGLEDGVREFLDDLKSNSNKSVTESSPFVPSSTPTPVDDRSSSPSYSQFKTAEERAAYLKEQAKKRMKEKLAKFDKNRRNVTQSSRSISSENSREQPQQIAGSSNLVEPRATPFQEEKYVEVAQPTQPVQSTQPVQPTQPVQPTQPVQPTQPVQPTQPVQPTQPVQNVYNAKQESDDEDEDDEEKRLQEELKRLKLKKKADKEKRLAALRKQIEDAQNESDEEETNGKDNFGGHVNVPQAAPVAPSAAFSQNSTNAPRSVHAAVTPAAGKNSTGLPSTTMGHNPYFKDASASSTSTFDARAAEMQRRIQRGLDEDEDDGWSDEDESNNRVAVDNKVEEAKIGHPDHARAPPVTAAPLPSVTPVPPAVPVPQANTSNEKSSPIPIAPIPPSVTQEPPVPLAPPLPAVDGFQEPPIPSAPAIATAVQKSGSSTPALAGGVLPPPPPLPTQQASTSEPIIAHVDNYNGAEKGTGAYGSDSDDDVLSIPESVGTDEEEEGAQPVSTAGIPSIPPAGIPPPPPLP
B1: the binding result in experiment [1] and in experiment [2] was “no binding” throughout.

B2: End3, P39013 1-349 (protein)
chain: MPKLEQFEIKKYWQIFSGLKPIENKVNHDQVLPILYNSKLDSSVLNKIWFLADIDDDDNLDFEEFVICMRLIFDMVNKNISSVPDELPDWLIPGSKVNLIKERKKRKQIENADLPPKKEIKVDWYMSPDDLNQYEKIYNSCAKLTDGTITFNELSTKLSTKFFNISKTDLNKVWSLINPQNLPSIDRDPTFYFIHCLRQRNDLGAEIPASLPNSLAEVCNKKQLSYDLRSSQPPTKRKEEANEVDNLRDNGQNSSSDSSGSNVLSNEDSIKQKYASLTDDQVANMREQLEGLLNYKKSEKTQGGSKLSKRINIRSITDDLDNIEQQVEVLENYLNNKRHELQALQAEIN
As to B2, the binding result in experiment [1] and in experiment [2] was “no binding” in each case.

B3: Ent1, Q12518 1-454 (protein)
chain: T2 chain
Regarding B3, the binding result in experiment [3] is listed as “no binding”.
